Results from patent US20240383874A1, “BENZENE RING DERIVATIVE, AND COMPOSITION AND PHARMACEUTICAL USE THEREOF” (Xizang Haisco Pharmaceutical Co., Ltd., priority 2020, published 2024).
Like-named read-outs stand apart in the source and are kept apart here. Some of these results come from one statement about several compounds together.

Test system: 22RV1 cells
Experiment: Experiment 2 on inhibiting 22RV1 cell proliferation (7 days, CellTiter-Glo)
Format: cell-based
Conditions: 1% css-FBS phenol red-free medium, incubated with compound 7 days
Procedure: Prostate cancer cells 22RV1 were purchased from ATCC, the cell medium was RPMI 1640+10% FBS, and the cells were cultured in an incubator at 37° C. under 5% CO2. On day 1, the cells in an exponential phase were collected. With a 1% css-FBS phenol red-free medium, the cell suspension was adjusted to a corresponding concentration, plated at 2000 cells/well and incubated overnight. On day 2, compounds at different concentrations were added, and the plate was placed in the incubator and incubated for further 7 days. After the incubation was completed, according to operation instructions for a CellTiter-Glo kit (Promega, G7573), 50 μL of CTG solution, which was already pre-melted and equilibrated to room temperature, was added to each well, and the mixtures were uniformly mixed for 2 min using a microplate shaker. The plate was placed at room temperature for 10 min, and then fluorescence signal values were measured using a microplate reader (PHERAstar FSX). The results were processed according to formula (2), the survival rate of the compound at different concentrations was calculated, and the IC50 value of the compound with a survival rate of 50% was calculated using origin9.2 software with DoseResp function, wherein RLU compound was the readout of the treated group, and RLU control was the average value of the DMSO vehicle control group.

Row | Compound | IC50 (listed as compound 128, read-out: IC50 values on proliferation inhibition of 22RV1 cells) [µM] | IC50 (listed as compound 129, read-out: IC50 values on proliferation inhibition of 22RV1 cells) [µM]
1 | CC(C)(c1ccc(OCc2ccnc(N3CCC4(CC3)CCN(C3CC5(CCN(c6ccc7c(c6)C(=O)N(C6CCC(=O)NC6=O)C7=O)CC5)C3)CC4)n2)cc1)c1cc(Cl)cc(C#N)c1 (centres unmarked) [Compound 128, 3-chloro-5-(2-(4-((2-(9-(7-(2-(2,6-dioxopiperidin-3-yl)-1,3-dioxoisoindolin-5-yl)-7-azaspiro[3.5]nonan-2-yl)-3,9-diazaspiro[5.5]undecan-3-yl)pyrimidin-4-yl)methoxy)phenyl)propan-2-yl)benzonitrile] | < 5 | 
2 | CC(C)(c1ccc(OCc2ccnc(N3CCC4(CCN(CC5CC6(CCN(c7ccc8c(c7)C(=O)N(C7CCC(=O)NC7=O)C8=O)CC6)C5)CC4)CC3)n2)cc1)c1cc(Cl)cc(C#N)c1 (centres unmarked) [Compound 129, 3-chloro-5-(2-(4-((2-(9-((7-(2-(2,6-dioxopiperidin-3-yl)-1,3-dioxoisoindolin-5-yl)-7-azaspiro[3.5]nonan-2-yl)methyl)-3,9-diazaspiro[5.5]undecan-3-yl)pyrimidin-4-yl)methoxy)phenyl)propan-2-yl)benzonitrile] |  | < 5
